Results as given in US11542298B2, “Hydroxysteroid compounds, their intermediates, process of preparation, composition and uses thereof” (Epirium Bio Inc., priority 2014, dated 2023).
Like-named read-outs stand apart in the source and are kept apart here.

Test system: APPL1
Details: HepG2, FIG. 2b

With `CC(=O)C1CC[C@H]2[C@@H]3CC=C4CC(O)CC[C@]4(C)[C@H]3[C@@H](O)C[C@]12C` (stereo partly drawn) [Compound 1039, 1-((8S,9S,10R,11S,13S,14S)-3,11-dihydroxy-10,13-dimethyl-2,3,4,- 7,8,9,10,11,12,13,14,15,16,17-tetradecahydro-1H-cyclopenta[a]-phenanthren-17-yl)ethanone] the “APPL1 activation and translocation to the nucleus” value was “activates APPL1 and causes its translocation to the nucleus” and the “APPL1 activation and translocation to the nucleus” value (listed as 11β-hydroxypregnenolone) was “activation APPL1 and translocation to the nucleus”.
